How the values were obtained:
COX8α = assay: qRT-PCR mRNA expression of ERR downstream gene COX8α; format: cell-based; conditions: 300 nM; ERR reporter cells; vs GAPDH, DMSO = 0%
Description: (§1) Total RNA was isolated from treated ERR reporter cells using an RNeasy Mini Kit (Qiagen, Germantown, MD, USA), homogenized using a QIAshredder (Qiagen), and reverse transcribed with a High-Capacity RNA-to-cDNA™ Kit (ThermoFisher Scientific, Inc.) following the manufacturers’ instructions. Expression of ERRα, COX8α, IDH3α, PPARα, COX4I1, and cytochrome c genes was normalized against GAPDH. All primers were purchased from ThermoFisher Scientific, Inc. Real-time PCR assays were performed in 384-well plates on a QuantStudio 5 (Applied Biosystems, Foster City, CA, USA) with TaqMan™ Gene Expression Master Mix (ThermoFisher Scientific, Inc.). Induction values were calculated using the equation: Fold = 2^ΔΔCt, where ΔCt represents the differences in cycle threshold numbers between each of the target genes and GAPDH, and ΔΔCt represents the relative change in these differences between control and treatment groups. Experimental data are presented as a mean of triplicate determinations ± SD. Statistical comparisons were made by t-test, while the statistical significance was set at p values of <0.05 (light blue), <0.01 (medium blue), and <0.001 (dark blue).

IDH3α = assay: qRT-PCR mRNA expression of ERR downstream gene IDH3α; format: cell-based; conditions: 300 nM; ERR reporter cells; vs GAPDH, DMSO = 0%
Description: as §1

`O=C(CCCCCCC(=O)Nc1ccccc1)NO` [Vorinostat (SAHA), Suberoylanilide hydroxamic acid] was tested, and the “Percent inhibition of mRNA gene expression, COX8α” value (COX8α) was 33.4 ± 22.5% and the “Percent inhibition of mRNA gene expression, IDH3α” value (IDH3α) was 26.1 ± 32.9%.

— PMC6429183, “Identification of Compounds That Inhibit Estrogen-Related Receptor Alpha Signaling Using High-Throughput Screening Assays” (Molecules, 2019)
